These results are taken from PMC6517424.

Protein sequences, listed by entry. Tags and fused reporters are not part of them.
UniProt P56524: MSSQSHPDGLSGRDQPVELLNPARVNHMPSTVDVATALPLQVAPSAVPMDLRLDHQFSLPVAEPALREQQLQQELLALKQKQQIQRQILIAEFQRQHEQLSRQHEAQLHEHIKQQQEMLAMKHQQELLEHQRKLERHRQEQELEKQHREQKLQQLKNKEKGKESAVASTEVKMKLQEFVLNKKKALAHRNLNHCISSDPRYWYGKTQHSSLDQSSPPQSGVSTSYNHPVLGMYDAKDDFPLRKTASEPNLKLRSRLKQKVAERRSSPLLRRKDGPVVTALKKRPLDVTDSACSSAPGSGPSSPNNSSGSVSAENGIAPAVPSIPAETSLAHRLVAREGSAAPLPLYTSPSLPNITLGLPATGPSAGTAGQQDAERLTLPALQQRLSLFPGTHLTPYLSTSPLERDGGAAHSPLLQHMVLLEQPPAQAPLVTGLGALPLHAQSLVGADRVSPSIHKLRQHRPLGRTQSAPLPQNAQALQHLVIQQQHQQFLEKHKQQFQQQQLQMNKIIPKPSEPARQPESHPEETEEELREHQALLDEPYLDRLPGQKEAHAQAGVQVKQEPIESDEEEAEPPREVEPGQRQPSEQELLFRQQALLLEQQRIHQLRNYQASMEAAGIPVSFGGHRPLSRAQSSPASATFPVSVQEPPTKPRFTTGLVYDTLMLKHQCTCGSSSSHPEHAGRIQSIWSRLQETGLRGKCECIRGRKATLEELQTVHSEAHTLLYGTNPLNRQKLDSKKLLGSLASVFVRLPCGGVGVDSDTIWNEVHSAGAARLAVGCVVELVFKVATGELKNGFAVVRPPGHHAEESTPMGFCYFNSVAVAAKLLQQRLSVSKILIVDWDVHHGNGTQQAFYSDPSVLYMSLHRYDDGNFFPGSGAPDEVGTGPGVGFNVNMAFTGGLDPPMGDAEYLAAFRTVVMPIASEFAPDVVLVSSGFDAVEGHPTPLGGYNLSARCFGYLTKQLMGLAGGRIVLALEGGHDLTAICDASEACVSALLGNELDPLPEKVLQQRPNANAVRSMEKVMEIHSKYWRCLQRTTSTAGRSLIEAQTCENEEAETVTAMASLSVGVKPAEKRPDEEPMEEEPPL

No constants are given. Whether binding was seen depends on the method and setting. In cells and extracts the contact can be indirect. Some binding calls cover weakened binding; strength is not graded here. Tags and fused reporters may be left off the sequences shown.

This experiment addresses HDAC4-Flag (UniProt P56524). The experiment can be described thus: co-IP; HepG2 cells co-transfected with HA-Nup155 and HDAC4-Flag, harvested after 24 h in non-denaturing lysis buffer; anti-Flag antibody on Dynabeads Protein G mixed with whole protein lysate overnight at 4 °C; IgG1 as negative control; immunoblot. In general terms: Immunoblotting shows a protein as a band on a membrane.

B1: Nup155 (N-terminally His6-HA-StrepII-tagged) (protein, UniProt O75694 1-1391)
chain: MPSSLLGAAMPASTSAAALQEALENAGRLIDRQLQEDRMYPDLSELLMVSAPNNPTVSGMSDMDYPLQGPGLLSVPNLPEISSIRRVPLPPELVEQFGHMQCNCMMGVFPPISRAWLTIDSDIFMWNYEDGGDLAYFDGLSETILAVGLVKPKAGIFQPHVRHLLVLATPVDIVILGLSYANLQTGSGVLNDSLSGGMQLLPDPLYSLPTDNTYLLTITSTDNGRIFLAGKDGCLYEVAYQAEAGWFSQRCRKINHSKSSLSFLVPSLLQFTFSEDDPILQIAIDNSRNILYTRSEKGVIQVYDLGQDGQGMSRVASVSQNAIVSAAGNIARTIDRSVFKPIVQIAVIENSESLDCQLLAVTHAGVRLYFSTCPFRQPLARPNTLTLVHVRLPPGFSASSTVEKPSKVHRALYSKGILLMAASENEDNDILWCVNHDTFPFQKPMMETQMTAGVDGHSWALSAIDELKVDKIITPLNKDHIPITDSPVVVQQHMLPPKKFVLLSAQGSLMFHKLRPVDQLRHLLVSNVGGDGEEIERFFKLHQEDQACATCLILACSTAACDREVSAWATRAFFRYGGEAQMRFPTTLPPPSNVGPILGSPVYSSSPVPSGSPYPNPSFLGTPSHGIQPPAMSTPVCALGNPATQATNMSCVTGPEIVYSGKHNGICIYFSRIMGNIWDASLVVERIFKSGNREITAIESSVPCQLLESVLQELKGLQEFLDRNSQFAGGPLGNPNTTAKVQQRLIGFMRPENGNPQQMQQELQRKFHEAQLSEKISLQAIQQLVRKSYQALALWKLLCEHQFTIIVAELQKELQEQLKITTFKDLVIRDKELTGALIASLINCYIRDNAAVDGISLHLQDICPLLYSTDDAICSKANELLQRSRQVQNKTEKERMLRESLKEYQKISNQVDLSNVCAQYRQVRFYEGVVELSLTAAEKKDPQGLGLHFYKHGEPEEDIVGLQAFQERLNSYKCITDTLQELVNQSKAAPQSPSVPKKPGPPVLSSDPNMLSNEEAGHHFEQMLKLSQRSKDELFSIALYNWLIQVDLADKLLQVASPFLEPHLVRMAKVDQNRVRYMDLLWRYYEKNRSFSNAARVLSRLADMHSTEISLQQRLEYIARAILSAKSSTAISSIAADGEFLHELEEKMEVARIQLQIQETLQRQYSHHSSVQDAVSQLDSELMDITKLYGEFADPFKLAECKLAIIHCAGYSDPILVQTLWQDIIEKELSDSVTLSSSDRMHALSLKIVLLGKIYAGTPRFFPLDFIVQFLEQQVCTLNWDVGFVIQTMNEIGVPLPRLLEVYDQLFKSRDPFWNRMKKPLHLLDCIHVLLIRYVENPSQVLNCERRRFTNLCLDAVCGYLVELQSMSSSVAVQAITGNFKSLQAKLERLH
With B1, the binding result was “binds”.
